From paper PMC13156748
No constants are given. Whether binding was seen depends on the method and setting. Binding seen in cells or lysates may run through a third protein. Here binding means that the protein was enriched with, or labelled near, the bait; the list need not be complete.

Target: FLAG-tagged cH2A (N-terminally truncated H2A, representing cleavage at L23)
Experiment: affinity purification with mass spectrometry; FLAG antibody on protein G magnetic beads; lysate (~600 ug) of mESCs expressing FLAG-tagged FL-H2A or cH2A, overnight at 4 °C; IP buffer 20 mM Tris pH 7.5, 137 mM NaCl, 1% NP-40, with Benzonase; on-bead digestion, LC-MS; IgG as control

B1: Trim21 (protein, UniProt Q62191 1-470)
chain: MSPSTTSKMSLEKMWEEVTCSICLDPMVEPMSIECGHCFCKECIFEVGKNGGSSCPECRQQFLLRNLRPNRHIANMVENLKQIAQNTKKSTQETHCMKHGEKLHLFCEEDGQALCWVCAQSGKHRDHTRVPIEEAAKVYQEKIHVVLEKLRKGKELAEKMEMDLTMQRTDWKRNIDTQKSRIHAEFALQNSLLAQEEQRQLQRLEKDQREYLRLLGKKEAELAEKNQALQELISELERRIRGSELELLQEVRIILERSGSWNLDTLDIDAPDLTSTCPVPGRKKMLRTCWVHITLDRNTANSWLIISKDRRQVRMGDTHQNVSDNKERFSNYPMVLGAQRFSSGKMYWEVDVTQKEAWDLGVCRDSVQRKGQFSLSPENGFWTIWLWQDSYEAGTSPQTTLHIQVPPCQIGIFVDYEAGVVSFYNITDHGSLIYTFSECVFAGPLRPFFNVGFNYSGGNAAPLKLCPLKM
- binding: binds
